Measurements as given in PMC7581802.
These are yes or no findings as the source states them, for the method shown. Binding seen in cells or lysates may run through a third protein. Some binding calls cover weakened binding; strength is not graded here.

Amino acid sequences for entries named in this document (tags omitted).
UniProt P08047: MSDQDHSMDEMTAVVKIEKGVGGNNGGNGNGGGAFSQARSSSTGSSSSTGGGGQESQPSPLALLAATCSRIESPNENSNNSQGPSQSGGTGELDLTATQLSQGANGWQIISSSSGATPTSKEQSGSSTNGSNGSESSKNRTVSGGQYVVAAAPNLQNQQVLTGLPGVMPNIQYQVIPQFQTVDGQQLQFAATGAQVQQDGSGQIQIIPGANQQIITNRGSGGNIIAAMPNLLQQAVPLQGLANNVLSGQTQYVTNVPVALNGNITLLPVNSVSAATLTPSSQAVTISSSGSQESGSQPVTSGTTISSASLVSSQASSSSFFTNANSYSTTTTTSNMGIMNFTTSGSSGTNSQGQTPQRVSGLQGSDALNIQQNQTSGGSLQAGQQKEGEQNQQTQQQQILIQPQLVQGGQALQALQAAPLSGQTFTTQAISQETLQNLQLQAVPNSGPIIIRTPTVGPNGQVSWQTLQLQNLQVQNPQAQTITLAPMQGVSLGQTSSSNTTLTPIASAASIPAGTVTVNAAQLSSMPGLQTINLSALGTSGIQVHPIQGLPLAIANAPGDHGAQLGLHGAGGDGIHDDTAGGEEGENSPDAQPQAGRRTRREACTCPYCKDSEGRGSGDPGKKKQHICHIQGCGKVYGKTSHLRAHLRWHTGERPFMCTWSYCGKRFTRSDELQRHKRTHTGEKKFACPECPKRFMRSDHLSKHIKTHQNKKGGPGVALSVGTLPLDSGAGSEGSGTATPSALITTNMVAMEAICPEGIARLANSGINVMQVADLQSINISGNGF
UniProt Q9UNS1: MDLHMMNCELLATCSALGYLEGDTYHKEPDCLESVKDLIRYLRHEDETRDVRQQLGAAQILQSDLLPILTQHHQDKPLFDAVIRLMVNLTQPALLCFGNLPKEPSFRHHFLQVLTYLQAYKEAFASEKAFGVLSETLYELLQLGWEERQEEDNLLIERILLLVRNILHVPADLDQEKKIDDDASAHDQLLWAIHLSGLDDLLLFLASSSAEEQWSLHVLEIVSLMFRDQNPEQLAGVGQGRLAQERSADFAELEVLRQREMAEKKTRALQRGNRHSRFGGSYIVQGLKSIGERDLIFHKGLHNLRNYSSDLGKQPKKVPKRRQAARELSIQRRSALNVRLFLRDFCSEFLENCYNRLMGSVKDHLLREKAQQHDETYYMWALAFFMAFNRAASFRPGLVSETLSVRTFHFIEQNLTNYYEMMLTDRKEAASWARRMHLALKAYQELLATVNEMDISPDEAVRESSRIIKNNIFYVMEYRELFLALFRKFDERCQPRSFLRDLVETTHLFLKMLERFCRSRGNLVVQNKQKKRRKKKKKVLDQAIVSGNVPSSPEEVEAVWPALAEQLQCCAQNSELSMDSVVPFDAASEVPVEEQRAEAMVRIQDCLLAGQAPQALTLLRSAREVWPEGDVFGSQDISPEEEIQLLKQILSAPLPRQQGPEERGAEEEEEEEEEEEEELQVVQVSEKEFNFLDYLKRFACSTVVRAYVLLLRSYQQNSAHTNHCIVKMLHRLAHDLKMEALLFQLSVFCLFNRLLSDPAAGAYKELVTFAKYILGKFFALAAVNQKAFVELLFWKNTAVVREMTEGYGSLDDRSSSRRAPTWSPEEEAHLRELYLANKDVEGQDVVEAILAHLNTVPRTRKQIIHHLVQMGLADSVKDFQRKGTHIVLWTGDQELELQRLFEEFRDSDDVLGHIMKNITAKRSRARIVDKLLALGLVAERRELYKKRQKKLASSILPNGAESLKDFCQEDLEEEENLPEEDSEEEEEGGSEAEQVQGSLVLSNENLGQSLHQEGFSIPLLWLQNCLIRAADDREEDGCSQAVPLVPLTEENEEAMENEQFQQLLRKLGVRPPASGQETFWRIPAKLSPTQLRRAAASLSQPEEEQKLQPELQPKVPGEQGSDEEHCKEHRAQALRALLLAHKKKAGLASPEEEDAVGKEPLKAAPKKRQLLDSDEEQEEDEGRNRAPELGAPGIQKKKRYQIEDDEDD

Molecular target: specificity protein 1 (Sp1) (human (endogenous in MCF7)) (UniProt P08047)
Experiment: co-IP; MCF7 cell lysates (RIPA lysis buffer) immunoprecipitated with anti-Sp1 (anti-TIM) antibody or control IgG, immunoblotted with anti-TIM (anti-Sp1) antibody

- binding: binds
Sequence: TIMELESS circadian regulator (TIM) (from UniProt Q9UNS1 1-1208)
